From publication doi:10.1101/2024.08.01.24311333
These are yes or no findings as the source states them, for the method shown. In cells and extracts the contact can be indirect. Here binding means that the protein was enriched with, or labelled near, the bait; the list need not be complete. Tags and fused reporters may be left off the sequences shown.

By UniProt entry, the sequences of proteins in these tests, tags left out.
UniProt Q12834: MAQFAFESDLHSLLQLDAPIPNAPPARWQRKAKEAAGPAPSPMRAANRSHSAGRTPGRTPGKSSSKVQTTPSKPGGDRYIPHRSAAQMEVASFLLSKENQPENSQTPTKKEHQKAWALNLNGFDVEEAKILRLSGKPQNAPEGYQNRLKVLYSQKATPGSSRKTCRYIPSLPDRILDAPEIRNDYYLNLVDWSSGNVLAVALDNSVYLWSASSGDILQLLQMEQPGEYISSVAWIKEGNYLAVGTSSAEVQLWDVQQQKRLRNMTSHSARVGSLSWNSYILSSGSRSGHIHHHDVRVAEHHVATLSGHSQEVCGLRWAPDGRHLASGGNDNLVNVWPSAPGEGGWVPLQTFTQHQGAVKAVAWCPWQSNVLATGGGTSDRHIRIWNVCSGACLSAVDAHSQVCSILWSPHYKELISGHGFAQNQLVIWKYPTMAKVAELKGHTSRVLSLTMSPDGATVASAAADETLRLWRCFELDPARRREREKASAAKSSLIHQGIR
UniProt Q9UNE7: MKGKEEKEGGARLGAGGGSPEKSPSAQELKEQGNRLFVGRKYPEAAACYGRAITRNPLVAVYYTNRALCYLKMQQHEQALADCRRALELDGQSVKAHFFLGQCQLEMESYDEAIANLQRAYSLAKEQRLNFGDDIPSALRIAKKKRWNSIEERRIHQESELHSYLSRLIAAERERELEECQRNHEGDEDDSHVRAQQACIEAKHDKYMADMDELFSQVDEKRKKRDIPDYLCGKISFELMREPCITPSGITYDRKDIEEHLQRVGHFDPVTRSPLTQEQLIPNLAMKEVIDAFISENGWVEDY
UniProt Q15386: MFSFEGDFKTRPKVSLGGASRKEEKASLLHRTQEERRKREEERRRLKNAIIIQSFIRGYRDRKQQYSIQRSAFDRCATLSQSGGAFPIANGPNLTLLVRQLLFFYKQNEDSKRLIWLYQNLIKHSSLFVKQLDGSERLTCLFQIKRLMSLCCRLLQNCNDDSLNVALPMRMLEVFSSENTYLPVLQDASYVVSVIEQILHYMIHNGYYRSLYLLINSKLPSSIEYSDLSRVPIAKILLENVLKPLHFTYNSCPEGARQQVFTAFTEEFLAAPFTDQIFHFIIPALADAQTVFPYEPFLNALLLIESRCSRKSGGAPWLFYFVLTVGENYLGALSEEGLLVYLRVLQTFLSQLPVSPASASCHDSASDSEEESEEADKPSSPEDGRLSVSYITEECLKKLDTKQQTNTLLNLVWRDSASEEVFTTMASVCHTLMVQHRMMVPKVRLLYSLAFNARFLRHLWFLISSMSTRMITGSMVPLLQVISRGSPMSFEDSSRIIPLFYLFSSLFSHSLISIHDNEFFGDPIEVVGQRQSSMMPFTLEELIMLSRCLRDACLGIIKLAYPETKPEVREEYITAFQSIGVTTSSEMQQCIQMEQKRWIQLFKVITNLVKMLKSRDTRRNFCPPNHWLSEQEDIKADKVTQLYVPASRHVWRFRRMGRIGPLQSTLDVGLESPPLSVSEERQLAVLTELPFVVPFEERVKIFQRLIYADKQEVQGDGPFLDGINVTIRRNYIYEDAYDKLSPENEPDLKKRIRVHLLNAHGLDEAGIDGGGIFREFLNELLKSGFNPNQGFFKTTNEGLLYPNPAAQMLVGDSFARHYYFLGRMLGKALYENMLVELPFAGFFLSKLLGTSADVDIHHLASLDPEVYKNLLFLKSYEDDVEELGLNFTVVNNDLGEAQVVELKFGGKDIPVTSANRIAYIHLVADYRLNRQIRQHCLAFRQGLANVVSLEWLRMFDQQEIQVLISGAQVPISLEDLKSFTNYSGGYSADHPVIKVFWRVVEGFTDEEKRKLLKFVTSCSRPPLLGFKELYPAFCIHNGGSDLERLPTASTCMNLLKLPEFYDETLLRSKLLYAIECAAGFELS

Molecular target: T1, Cadherin-26, FLAG-tagged, full-CDH26 (1-832) (human) (UniProt Q8IXH8)
T1 sequence: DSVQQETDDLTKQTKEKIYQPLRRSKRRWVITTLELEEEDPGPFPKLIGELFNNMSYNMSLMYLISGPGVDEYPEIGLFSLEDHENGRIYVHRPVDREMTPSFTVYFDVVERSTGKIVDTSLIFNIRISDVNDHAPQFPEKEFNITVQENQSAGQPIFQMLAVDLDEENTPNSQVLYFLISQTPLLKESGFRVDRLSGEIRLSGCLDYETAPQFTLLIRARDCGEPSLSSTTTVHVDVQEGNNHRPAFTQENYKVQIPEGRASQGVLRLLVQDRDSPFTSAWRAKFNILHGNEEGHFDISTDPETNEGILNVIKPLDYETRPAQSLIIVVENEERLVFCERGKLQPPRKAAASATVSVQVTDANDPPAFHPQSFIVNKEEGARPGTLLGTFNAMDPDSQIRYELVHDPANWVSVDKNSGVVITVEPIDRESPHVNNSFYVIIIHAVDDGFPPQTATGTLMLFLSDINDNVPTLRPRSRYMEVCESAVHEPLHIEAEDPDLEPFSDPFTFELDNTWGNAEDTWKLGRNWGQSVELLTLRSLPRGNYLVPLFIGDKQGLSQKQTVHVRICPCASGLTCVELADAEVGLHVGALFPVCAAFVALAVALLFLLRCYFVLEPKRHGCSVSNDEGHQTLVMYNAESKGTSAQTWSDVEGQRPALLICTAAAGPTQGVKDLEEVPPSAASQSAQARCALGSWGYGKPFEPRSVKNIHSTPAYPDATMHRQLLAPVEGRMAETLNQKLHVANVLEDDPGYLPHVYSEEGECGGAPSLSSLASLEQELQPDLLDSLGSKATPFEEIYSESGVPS
Experiment: affinity purification with mass spectrometry

Row | binding | Substance
1 | binds | CDC20 (from UniProt Q12834 1-499)
2 | binds | STIP1 homology and U-box-containing protein 1 (from UniProt Q9UNE7 1-303) (enzyme)
3 | binds | UBE3C (from UniProt Q15386 1-1083) (enzyme)
